The target in test [1] is GFP-Cna1 (calcineurin catalytic subunit A tagged with GFP) (C. neoformans) (UniProt O42773). Kind of test: affinity purification with mass spectrometry; GFP-Cna1 precipitated with GFP-Trap resin from lysates of cells kept 1 h at 24°C or 37°C; 2 h at 4°C; lysis 10 mM Tris/Cl pH 7.5, 150 mM NaCl, 0.5 mM EDTA; wash with 350 mM NaCl; gel slices of about 6-100 kDa analysed by LC-MS/MS; control strain KN99a without GFP-Cna1; lysates analysed too.

Sequences of proteins named here, by UniProt entry; tags and fusion partners are left off. A change or cut given only in a name is not applied to a line headed by its entry.
UniProt O42773: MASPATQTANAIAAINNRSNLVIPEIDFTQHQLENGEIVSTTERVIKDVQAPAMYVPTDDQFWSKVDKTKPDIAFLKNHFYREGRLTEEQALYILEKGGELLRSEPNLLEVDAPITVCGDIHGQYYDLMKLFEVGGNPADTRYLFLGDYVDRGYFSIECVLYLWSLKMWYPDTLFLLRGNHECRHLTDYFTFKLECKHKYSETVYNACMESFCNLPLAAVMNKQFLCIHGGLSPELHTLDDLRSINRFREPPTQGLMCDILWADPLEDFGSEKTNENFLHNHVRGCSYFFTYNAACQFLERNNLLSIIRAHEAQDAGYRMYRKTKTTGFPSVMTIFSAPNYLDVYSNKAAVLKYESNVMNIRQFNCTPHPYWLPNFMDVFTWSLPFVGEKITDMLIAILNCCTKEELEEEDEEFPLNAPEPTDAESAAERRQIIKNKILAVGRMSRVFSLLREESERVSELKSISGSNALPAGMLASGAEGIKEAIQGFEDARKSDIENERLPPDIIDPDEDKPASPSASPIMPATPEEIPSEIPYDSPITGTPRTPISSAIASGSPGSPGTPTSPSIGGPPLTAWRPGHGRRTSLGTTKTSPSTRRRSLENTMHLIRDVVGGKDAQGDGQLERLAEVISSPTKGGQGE
UniProt J9VU63: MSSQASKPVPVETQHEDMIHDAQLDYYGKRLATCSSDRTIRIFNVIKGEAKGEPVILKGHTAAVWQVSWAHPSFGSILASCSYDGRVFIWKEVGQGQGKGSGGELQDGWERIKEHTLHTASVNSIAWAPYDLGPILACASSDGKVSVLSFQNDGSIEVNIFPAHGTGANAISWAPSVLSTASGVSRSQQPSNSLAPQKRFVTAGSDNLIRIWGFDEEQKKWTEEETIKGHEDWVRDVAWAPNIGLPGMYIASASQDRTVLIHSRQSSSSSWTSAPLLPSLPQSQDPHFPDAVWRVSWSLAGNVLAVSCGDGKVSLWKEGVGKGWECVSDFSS
UniProt J9VKE9: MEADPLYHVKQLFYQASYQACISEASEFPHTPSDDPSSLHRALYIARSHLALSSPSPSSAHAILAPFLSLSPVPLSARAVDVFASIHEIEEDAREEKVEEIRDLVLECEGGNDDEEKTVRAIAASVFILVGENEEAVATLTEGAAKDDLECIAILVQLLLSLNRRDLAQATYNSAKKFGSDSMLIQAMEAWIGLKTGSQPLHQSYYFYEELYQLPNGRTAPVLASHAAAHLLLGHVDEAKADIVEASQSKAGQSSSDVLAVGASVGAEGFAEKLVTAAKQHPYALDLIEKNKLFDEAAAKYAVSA

Test [2] shares this target. Described as above. This is another data set of the same source.

Read-outs that look alike come from different tables or passages of the source. No constants are given. Whether binding was seen depends on the method and setting. Binding seen in cells or lysates may run through a third protein. A yes stands for co-enrichment or nearness to the bait. Other partners may have been found.

With “COPII component Sec13 (endogenous) (from UniProt J9VU63)”, the binding result in test [1] is listed as “binds”.

With “COPI component Sec28 (endogenous) (from UniProt J9VKE9)”, the binding entry in test [1] is “binds”.

B1: alpha-trehalose-phosphate synthase, Tps1 (enzyme, UniProt Q6IVK9 1-670)
chain: MTTMSNDIPNSPTSTSFTGTFSPAATAANTAANARTSDAPSPTTSSSGPKLETSKEQRLIVVSNRLPVTISKDDNGEYHFKMSSGGLVSALSGCKKTMSFTWIGWPGKDIPMQDRETVNRRLLDEYNCYPVYLSDELADSHYNGSFSNSILWPLFHYHPGEMNFDAAHWLAYREANMRFADVVSSLVQAGDMVWVQDYHLMLLPMLLRSMITGESAQGEMVRQELGRVKEGVDDTVVKEVLKMGPGVAQAEDEGVEMLDDVEEEGGEMDVKSSPKRPHYARGMSTFQKQELVAKEKGKEGIRIGFFLHTPFPSSEIYRILPVRREILLGVLQCDLIGFHTYDYARHFLSSCTRILGLETQPNGIEFDGRYCQVGTFPIGIDPNQFIEGLQKESIVKRLRSLEARFEGVKVIIGVDRLDYIKGIPQKLQALETFLTQHPEWIGKVVLVQLAIPSRQDVEEYQDLRACVNELVGRINGRFGTVESVPIHYMHKSVPFEELTAMYALADACLVTSTRDGMNLVAYEYISSQAERHGSMILSEFAGAAQSFNGSLLINPWDVQSTADAINQALTLSPQQRKTNWQKLFNYVSKYTAEAWGVSFVNELNRLSGQRPSGPTGLAGRRKSGSLSRTSSKASIQRRKSSQSGIVTGLGAAAGAAVNWAQAQVQGGSQT
For the molecule B1, the binding entry in test [2] is “binds”.
